PubChem BioAssay AID504793, Drosophila RNAi Screening Center – 2011
In all, the deposit lists about 23,000 reagents; shown is an unselected part of those with a known target gene and a result. Of all reagents, 62 (0.27%) got an active call. 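Calls come from follow-up tests whose scores are not deposited, so confirmed genes may have low counts here; counts are not normalised per plate.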 The raw values are shown without normalisation. A plus sign joins genes that one reagent is predicted to hit.

Test: 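Knock-downs allowing continued mitosis even though DNA is damaged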 (primary screen)
Cells: Drosophila S2R+ cells
Knock-down reagent: long dsRNA against Drosophila genes, about 0.25 µg dsRNA per well
Timing: 4 days of dsRNA, then 4 hours of drug before read-out
Treatment: doxorubicin 0.5 µM for 4 hours to cause double-strand breaks, in cells also given a low, harmless dose of dsRNA against nbs to sensitise the assay
Measured: 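Per-well count of mitotic cells stained for phospho-histone H3 after doxorubicin exposure, used as mitotic index; counts are raw and not normalised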
Reading the numbers: mitotic cells: higher = more cells in mitosis, weaker G2 arrest
Hit rule: 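a call needs confirmation in secondary tests, with other dsRNAs and a check of mitotic timing without damage, not just a high primary count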
Meaning of the calls: active = confirmed in follow-up tests; inactive = not confirmed

Gene	DRSC id	mitotic cells, replicate 1	activity call
CG7239 (GeneID 33809)	DRSC23113	10	inactive
CG14088 (GeneID 40098)	DRSC10092	7	inactive
Mis12 (GeneID 38762)	DRSC10299	5	inactive
CG6191 (GeneID 36513)	DRSC23127	8	inactive
CG9265 (GeneID 35369)	DRSC03178	6	inactive
CG9265 (GeneID 35369)	DRSC03179	5	inactive
f (GeneID 32718)	DRSC19174	2	inactive
f (GeneID 32718)	DRSC19516	7	inactive
f (GeneID 32718)	DRSC20331	9	inactive
f (GeneID 32718)	DRSC25251	8	inactive
f (GeneID 32718)	DRSC28735	5	inactive
l(3)72Dn (GeneID 39774)	DRSC10468	6	inactive
Rs1 (GeneID 44087)	DRSC05945	3	inactive
Rs1 (GeneID 44087)	DRSC26592	4	inactive
SmE (GeneID 34080)	DRSC02680	2	inactive
CG10359 (GeneID 38434)	DRSC08156	3	inactive
CG2681 (GeneID 31258)	DRSC18464	4	inactive
CG2681 (GeneID 31258)	DRSC24864	5	inactive
Claspin (GeneID 326205)	DRSC08308	16	inactive
lectin-37Da (GeneID 3346222)	DRSC03278	10	inactive
lectin-37Da (GeneID 3346222)	DRSC22729	14	inactive
CG32988 (GeneID 318274)	DRSC02692	2	inactive
CG15864 (GeneID 50001)	DRSC15122	2	inactive
CG15864 (GeneID 50001)	DRSC25659	7	inactive
trr (GeneID 31149)	DRSC23290	14	inactive
trr (GeneID 31149)	DRSC28776	9	inactive
EDTP (GeneID 36959)	DRSC07409	6	inactive
Gba1a (GeneID 42796)	DRSC21494	9	inactive
lectin-24Db (GeneID 53550)	DRSC00553	5	inactive
CG5348 (GeneID 36877)	DRSC06933	7	inactive
hbt (GeneID 34738)	DRSC23270	2	inactive
Rep (GeneID 37246)	DRSC07526	5	inactive
CG43102 (GeneID 42137)	DRSC14797	9	inactive
CG43102 (GeneID 42137)	DRSC16239	11	inactive
CG43102 (GeneID 42137)	DRSC28809	2	inactive
Art9 (GeneID 41698)	DRSC16584	3	inactive
CG32036 (GeneID 39105)	DRSC10362	11	inactive
CG32036 (GeneID 39105)	DRSC28171	6	inactive
vari (GeneID 35343)	DRSC03202	2	inactive
CG16974 (GeneID 34713)	DRSC02551	4	inactive
CG16974 (GeneID 34713)	DRSC28759	6	inactive
CG1231 (GeneID 38060)	DRSC08267	4	inactive
CG1231 (GeneID 38060)	DRSC27231	7	inactive
CG31106 (GeneID 318594)	DRSC14655	9	inactive
tyn (GeneID 3354987)	DRSC20652	4	inactive
CG14331 (GeneID 42099)	DRSC14810	14	inactive
CG12911 (GeneID 36081)	DRSC06226	8	inactive
CG12911 (GeneID 36081)	DRSC27975	2	inactive
yellow-e3 (GeneID 41651)	DRSC15170	10	inactive
pnt (GeneID 42757)	DRSC23204	3	inactive
pnt (GeneID 42757)	DRSC29116	3	inactive
CG30491 (GeneID 35704)	DRSC21472	7	inactive
CG30491 (GeneID 35704)	DRSC25369	7	inactive
ND-30 (GeneID 38378)	DRSC08243	5	inactive
pip (GeneID 40104)	DRSC11382	5	inactive
pip (GeneID 40104)	DRSC28579	8	inactive
CG5662 (GeneID 32450)	DRSC19957	12	inactive
Arp2 (GeneID 32623)	DRSC19332	6	inactive
lectin-37Db (GeneID 3346221)	DRSC03279	4	inactive

The list goes on (4 carried over from the part before).
Gene	DRSC id	mitotic cells, replicate 1	activity call
pip (GeneID 40104)	DRSC28579	8	inactive
CG5662 (GeneID 32450)	DRSC19957	12	inactive
Arp2 (GeneID 32623)	DRSC19332	6	inactive
lectin-37Db (GeneID 3346221)	DRSC03279	4	inactive
CG10494 (GeneID 37453)	DRSC04072	6	inactive
CG10494 (GeneID 37453)	DRSC29883	13	inactive
CG14339 (GeneID 33286)	DRSC00369	2	inactive
CG14339 (GeneID 33286)	DRSC26560	7	inactive
CG13003 (GeneID 32675)	DRSC19522	13	inactive
CG7016 (GeneID 42968)	DRSC16174	11	inactive
CG12551 (retired record) (GeneID 35518)	DRSC04857	6	inactive
CG12551 (retired record) (GeneID 35518)	DRSC04864	3	inactive
CG12551 (retired record) (GeneID 35518)	DRSC25725	2	inactive
CG12551 (retired record) (GeneID 35518)	DRSC27579	3	inactive
CG30015 (GeneID 36147)	DRSC05241	1	inactive
CG30015 (GeneID 36147)	DRSC07027	7	inactive
CG30015 (GeneID 36147)	DRSC07028	8	inactive
Ptp61F (GeneID 38160)	DRSC08683	7	inactive
Ptp61F (GeneID 38160)	DRSC28719	5	inactive
CG42686 (retired record) (GeneID 42674)	DRSC15248	10	inactive
CG42686 (retired record) (GeneID 42674)	DRSC22995	16	inactive
CG42686 (retired record) (GeneID 42674)	DRSC25798	9	inactive
CG42686 (retired record) (GeneID 42674)	DRSC29345	8	inactive
CG4766 (GeneID 31533)	DRSC17736	14	inactive
CG14258 (GeneID 43260)	DRSC14753	7	inactive
rudhira (GeneID 32136)	DRSC22111	13	inactive
rudhira (GeneID 32136)	DRSC23144	5	inactive
rudhira (GeneID 32136)	DRSC24869	7	inactive
CCDC151 (GeneID 39345)	DRSC10131	1	inactive
CCDC151 (GeneID 39345)	DRSC27319	5	inactive
CG33060 (GeneID 39807)	DRSC09939	2	inactive
Obp57c + Obp57b	DRSC21914	10	inactive
Obp57c + Obp57b	DRSC24245	8	inactive
Hsp110 (GeneID 39557)	DRSC11186	6	inactive
Hsp110 (GeneID 39557)	DRSC26538	6	inactive
Ctr1B + Poxm	DRSC16245	3	inactive
CG6980 (GeneID 42955)	DRSC16162	9	inactive
CG6980 (GeneID 42955)	DRSC29355	3	inactive
mTTF (GeneID 34837)	DRSC01909	7	inactive
Wdr92 (GeneID 39997)	DRSC10187	7	inactive
stan (GeneID 36125)	DRSC05234	7	inactive
stan (GeneID 36125)	DRSC07697	14	inactive
tun (GeneID 36743)	DRSC05592	7	inactive
tun (GeneID 36743)	DRSC07127	4	inactive
CG30121 (retired record) (GeneID 246468)	DRSC21481	7	inactive
CG30121 (retired record) (GeneID 246468)	DRSC27254	4	inactive
CG15814 (GeneID 32765)	DRSC19730	5	inactive
CG12460 (retired record) (GeneID 3355078)	DRSC20970	8	inactive
CG12224 (GeneID 41453)	DRSC14480	11	inactive
CG13051 (GeneID 5740583)	DRSC09932	7	inactive
Tdrd3 (GeneID 39612)	DRSC10016	1	inactive
CG8925 (GeneID 41963)	DRSC16455	4	inactive
CG8925 (GeneID 41963)	DRSC16456	6	inactive
CG8925 (GeneID 41963)	DRSC16457	2	inactive
atlas (GeneID 37689)	DRSC04183	6	inactive
